The target in the assay is T1, Tom71-HA (S. cerevisiae) (UniProt P38825).
T1 sequence: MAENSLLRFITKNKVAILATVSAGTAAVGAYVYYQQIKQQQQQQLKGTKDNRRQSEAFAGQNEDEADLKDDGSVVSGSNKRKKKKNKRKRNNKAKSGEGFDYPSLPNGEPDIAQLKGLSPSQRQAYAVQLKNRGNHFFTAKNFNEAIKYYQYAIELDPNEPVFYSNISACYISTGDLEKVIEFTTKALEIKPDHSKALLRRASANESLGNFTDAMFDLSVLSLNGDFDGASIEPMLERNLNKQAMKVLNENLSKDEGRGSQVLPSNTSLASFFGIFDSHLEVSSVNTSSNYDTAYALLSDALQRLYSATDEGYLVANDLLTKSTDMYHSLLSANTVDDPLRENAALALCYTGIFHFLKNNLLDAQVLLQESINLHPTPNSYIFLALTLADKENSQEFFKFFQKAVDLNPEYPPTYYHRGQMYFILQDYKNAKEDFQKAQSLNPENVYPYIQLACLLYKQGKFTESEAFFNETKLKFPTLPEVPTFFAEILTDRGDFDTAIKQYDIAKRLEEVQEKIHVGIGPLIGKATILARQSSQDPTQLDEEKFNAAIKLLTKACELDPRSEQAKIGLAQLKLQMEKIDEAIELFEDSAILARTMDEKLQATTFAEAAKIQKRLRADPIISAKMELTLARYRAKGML
The experiment in a line: co-IP.

These are yes or no findings as the source states them, for the method shown. Binding seen in cells or lysates may run through a third protein. Where a sequence is shown, tags or fusion partners need not be part of it.

B1: Flag-Pex19 (protein, UniProt Q07418 1-342)
chain: MNENEYDNFDDLDDLLDEDPTKLDEAEPDDVQAKGSVYNDSENKEKNAESKDSDGVQVANESEEDPELKEMMVDLQNEFANLMKNNGNENNVKTEDFNKLISALEEAAKVPHQQMEQGCSSLKSNSTDKGTVNGSNPGFKNIVSNTLDRLKENGNKVDTSLAEETKESQRSGQNNNIDDILSQLLDQMVASGGKESAENQFDLKDGEMDDAITKILDQMTSKEVLYEPMKEMRSEFGVWFQENGENEEHKEKIGTYKRQFNIVDEIVNIYELKDYDELKHKDRVTELLDELEQLGDSPIRSANSPLKHGNEEEELMKMLEIDGNDPNLGNLDKELTDGCKQQ
For the molecule B1, the binding result is reported as “no binding”.
